These are yes or no findings as the source states them, for the method shown. Some entries that bind do so weakly or less than the wild type.
Target: T1, E. coli MraY(T23P) (E. coli) (UniProt P0A6W3)
T1 sequence: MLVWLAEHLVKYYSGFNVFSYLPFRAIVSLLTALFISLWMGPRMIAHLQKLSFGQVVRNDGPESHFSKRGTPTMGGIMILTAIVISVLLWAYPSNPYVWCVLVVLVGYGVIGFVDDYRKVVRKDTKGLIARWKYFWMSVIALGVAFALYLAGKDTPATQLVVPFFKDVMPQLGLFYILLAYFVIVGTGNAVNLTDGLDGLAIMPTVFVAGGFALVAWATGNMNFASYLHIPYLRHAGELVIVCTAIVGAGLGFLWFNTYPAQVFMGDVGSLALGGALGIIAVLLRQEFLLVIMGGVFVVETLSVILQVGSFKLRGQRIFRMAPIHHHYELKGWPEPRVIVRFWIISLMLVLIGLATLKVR
Assay: cryo-EM structure; YES(T23P) complex (EcMraY(T23P), protein E, SlyD) co-expressed and purified in DDM; 5 mg/ml in 10 mM HEPES pH 7.5, 75 mM NaCl, 2% glycerol, 5 mM βME, 0.03% DDM, 1 mM E. coli total lipid extract; focused refinement of MraY alone after particle subtraction, final map 3.8 Å; both purified

Protein sequences, listed by entry. Tags and fused reporters are not part of them. Residues count along the entry.
UniProt P0A9K9, residues 1-154: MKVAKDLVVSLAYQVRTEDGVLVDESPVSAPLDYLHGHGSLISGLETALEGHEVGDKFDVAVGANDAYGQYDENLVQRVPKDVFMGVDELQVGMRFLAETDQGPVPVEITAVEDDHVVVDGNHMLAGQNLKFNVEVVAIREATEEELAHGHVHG

binding: binds
Substance: E. coli chaperone SlyD (SlyD_(1–154)) (from UniProt P0A9K9 1-154) (domain or fragment)

Reference: PMC10914600, “Synthesis of lipid-linked precursors of the bacterial cell wall is governed by a feedback control mechanism in Pseudomonas aeruginosa” (Nature Microbiology, 2024)
